Assay results as given in PubChem BioAssay AID1487 (National Center for Advancing Translational Sciences (NCATS), 2009).
Some of the results follow. Further columns of the screen follow, without active or inactive calls. Most of these compounds were active or inconclusive in the main read-out, so they are no random draw. Words in brackets tell the shape of the fitted curve; partial curves, single points and poor fits give uncertain potencies.

Experiment: qHTS Assay for Modulators of Lamin A Splicing
Conditions: HeLa LMNA splicing GFP/RFP minigene ratio, 48 h
Procedure, shortened: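 S3 HeLa cells stably expressing lamin A-EGFP splicing minigene plus DsRed2, 600 cells/well, 48 h compound exposure at 37C. Laser-scanning cytometry; analysed as GFP (500-530 nm)/RFP (575-640 nm) total intensity ratio; 0.5% DMSO vehicle.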

[1] = measured here: GFP splicing reporter channel
[2] = measured here: RFP viability control channel

In the case of `Cc1noc(C)c1-c1ccc2ncnc(N3CCN(C)CC3)c2c1`, the AC50 [1] was 3.98 µM [falling, partial curve].

With `Cc1cccc2cc3c(N)c(C(=O)N4CCc5ccccc54)sc3nc12` the AC50 [2] was 5.01 µM [rising, full curve, poor fit].

In the case of `CN(C)c1ccc(-c2cncnc2Nc2ccccc2)cc1`, the AC50 [1] was 10 µM [falling, partial curve].

With `CCN(CC)c1ccc(NC(=O)c2ccc(Cl)nc2)cc1` the AC50 [1] was 35.5 µM [rising, single point] and the AC50 [2] was 22.4 µM [rising, single point].

With `COC(=O)Cc1c(C(=O)OC)nnn1-c1ccc(OC)cc1` the AC50 [1] was 35.5 µM [falling, single point].

With `Cc1noc(C)c1CSc1nnc(-c2cc(Cl)ccc2Cl)n1N` the AC50 [1] was 11.2 µM [rising, single point] and the AC50 [2] was 14.1 µM [rising, single point].

For `OCC1OC(n2cnc3c(NCc4ccco4)ncnc32)C(O)C1O` (configuration not stated), the AC50 [1] was 3.98 µM [rising, full curve] and the AC50 [2] was 2.51 µM [rising, full curve].

In the case of `COc1ccccc1Oc1ccc(N/C=C/C(=O)c2ccco2)cc1`, the AC50 [1] was 0.891 µM [falling, full curve, poor fit] and the AC50 [2] was 0.891 µM [falling, full curve, poor fit].

With `O=C(NC1C=CS(=O)(=O)C1)c1sc2ccccc2c1Cl` (configuration not stated) the AC50 [1] was 35.5 µM [falling, single point].

For `Cc1ccc(NC(=O)CSc2nnc(NC(=O)NC3CCCCC3)s2)cc1`, the AC50 [1] was 0.224 µM [falling, partial curve, poor fit].

In the case of `CCc1cccc(N(CC(=O)NCc2ccc(F)cc2)C(=O)c2csnn2)c1`, the AC50 [1] was 17.8 µM [falling, partial curve, poor fit].

For `CN(C)c1ccc(C2=NOC(CN3C(=O)c4ccccc4S3(=O)=O)C2)cc1` (configuration not stated), the AC50 [2] was 17.8 µM [rising, single point].

In the case of `Fc1cccc(F)c1/C=C/c1ccc2ccccc2n1`, the AC50 [2] was 0.447 µM [rising, partial curve, poor fit].

With `COc1cc2c(cc1OC)C(COc1ccccc1OC)N(C(=O)c1ccc(S(=O)(=O)N(C)C)cc1)CC2` (configuration not stated) the AC50 [1] was 7.94 µM [falling, full curve, poor fit] and the AC50 [2] was 0.282 µM [falling, full curve, poor fit].

With `NNC(=O)c1cccc(COc2ccccc2Br)c1` the AC50 [1] was 0.126 µM [falling, full curve] and the AC50 [2] was 1.41 µM [falling, full curve].

In the case of `CCCCCn1c(CN(C)Cc2ccccc2)nc2c1c(=O)n(C)c(=O)n2C`, the AC50 [1] was 12.6 µM [rising, single point] and the AC50 [2] was 28.2 µM [rising, single point].

In the case of `CCC(=O)Nc1cccc(NC(=S)NC(=O)c2ccccc2)c1`, the AC50 [2] was 11.2 µM [rising, single point].

In the case of `CN(Cc1ccco1)c1ncnc2ccc(-c3ccoc3)cc12`, the AC50 [1] was 20 µM [falling, partial curve, poor fit] and the AC50 [2] was 14.1 µM [falling, partial curve, poor fit].

For `CCCCN(CC)C(=O)CSc1nc2ccccc2c(=O)n1Cc1ccco1`, the AC50 [2] was 10 µM [falling, partial curve].

In the case of `Cc1ccc(N=N/C(=C\O)C(=O)c2ccncc2)cc1`, the AC50 [2] was 15.8 µM [rising, single point].

With `CC(NC(=O)Nc1nnc(C(F)(F)F)s1)(C(F)(F)F)C(F)(F)F` the AC50 [1] was 3.55 µM [rising, partial curve] and the AC50 [2] was 2.51 µM [rising, full curve].

With `Cc1cc(C)c(S(=O)(=O)c2c(C)cccc2C)c(OCC(C)C)n1` the AC50 [2] was 12.6 µM [rising, partial curve, poor fit].

For `Cc1ccc(N2C(=O)c3cccc(Oc4ccc(Cl)cc4)c3C2=O)c(C)c1`, the AC50 [2] was 7.08 µM [rising, full curve, poor fit].

For `CCC(CC)NC(=O)c1n[nH]c(=O)c2ccccc12`, the AC50 [1] was 0.00398 µM [rising, full curve, poor fit].

In the case of `Cc1cccc(OCc2nnc(SCC(=O)N3c4ccccc4Sc4ccc(Cl)cc43)o2)c1`, the AC50 [1] was 12.6 µM [rising, single point] and the AC50 [2] was 17.8 µM [rising, single point].

With `C/C(=N\OC(=O)NC1CCCCC1)c1sc(-c2ccccc2)nc1C` the AC50 [1] was 7.94 µM [falling, partial curve] and the AC50 [2] was 11.2 µM [falling, partial curve].

In the case of `COc1ccc(/C=C(/C(=O)NCc2ccccc2)c2ccccc2)cc1`, the AC50 [2] was 17.8 µM [rising, partial curve, poor fit].

With `O=c1cc(CN2CCc3ccccc32)c2ccc(O)cc2o1` the AC50 [2] was 17.8 µM [rising, single point].

In the case of `COc1ccc(Nc2cc(C)c3cc(NC(=O)COc4cccc(C)c4)ccc3n2)cc1`, the AC50 [1] was 3.98 µM [falling, single point].

In the case of `O=C(Nc1ccc(NC(=O)c2cccs2)cn1)c1ccco1`, the AC50 [2] was 6.31 µM [falling, partial curve, poor fit].

With `Cc1cc(/C=C2/NC(=O)NC2=O)c(C)n1-c1sc2c(c1C#N)CCCC2` the AC50 [1] was 5.62 µM [falling, single point] and the AC50 [2] was 5.62 µM [falling, single point].

With `Cc1ccc(NC(=O)c2cc(NC(=O)c3ccco3)ccc2N2CCOCC2)cc1` the AC50 [2] was 10 µM [rising, single point].

In the case of `C=CCNC(=S)N/N=C(\C)c1cccc(NC(C)=O)c1`, the AC50 [1] was 0.0251 µM [falling, full curve] and the AC50 [2] was 0.02 µM [falling, full curve].

In the case of `CCOC(=O)CC1ON(C)C(=O)N1c1ccc([N+](=O)[O-])cc1` (configuration not stated), the AC50 [1] was 0.00447 µM [falling, full curve, poor fit] and the AC50 [2] was 0.00501 µM [falling, full curve, poor fit].

In the case of `CC(C)(C)n1nnnc1C(c1cccs1)N(Cc1ccc(Cl)cc1)CC1CCCO1` (configuration not stated), the AC50 [2] was 14.1 µM [rising, partial curve].

In the case of `CCOc1ccc(C(=O)NCC(c2ccc3c(c2)OCO3)N2CCN(C)CC2)cc1` (configuration not stated), the AC50 [1] was 17.8 µM [falling, partial curve, poor fit].

For `Cc1nn2c(C)c(C(=O)NCc3cccc(Br)c3)cnc2c1-c1ccccc1`, the AC50 [2] was 0.0282 µM [falling, full curve, poor fit].

With `O=S(=O)(c1ccc(F)cc1)N1CCN(Cc2ccccn2)CC1` the AC50 [1] was 0.2 µM [rising, full curve, poor fit].

In the case of `Cc1ccc(Nc2nc(CSc3nnnn3-c3ccccc3)cs2)cc1`, the AC50 [1] was 6.31 µM [rising, partial curve] and the AC50 [2] was 14.1 µM [rising, partial curve].

With `Cc1cccc(Cn2c(SCC(=O)Nc3ccccc3)nc3c2c(=O)[nH]c(=O)n3C)c1` the AC50 [2] was 3.98 µM [rising, full curve, poor fit].

For `O=C(N/N=C/c1ccncc1)c1cc(Br)ccc1OCc1ccccc1`, the AC50 [2] was 15.8 µM [rising, single point].

With `COc1ccc(-c2noc(COc3ccc(C)cc3C)n2)cc1OC` the AC50 [1] was 5.62 µM [falling, partial curve, poor fit].

With `CCOC(=O)c1sc(=NC(=O)c2cccc(OC)c2)n(C)c1C` the AC50 [2] was 10 µM [rising, single point].

In the case of `O=[N+]([O-])c1cccc(CN(CCO)Cc2ccccc2)c1`, the AC50 [2] was 35.5 µM [falling, single point].

In the case of `Fc1ccc(-c2cn3cc(C(F)(F)F)cc(Cl)c3n2)cc1`, the AC50 [2] was 35.5 µM [falling, single point].

For `Cn1nc(CC(=O)NC2CCCCCC2)c2ccccc2c1=O`, the AC50 [2] was 14.1 µM [rising, single point].

In the case of `CCOc1ccc(NC(=S)N2CCCN(Cc3cc(C)ccc3C)C2)cc1`, the AC50 [1] was 35.5 µM [falling, single point] and the AC50 [2] was 35.5 µM [falling, single point].

In the case of `NC(=O)COC(=O)/C=C/c1ccccc1[N+](=O)[O-]`, the AC50 [2] was 10 µM [rising, partial curve, poor fit].

For `CCc1c(C)nc2ncnn2c1N1CCCC(C(=O)NCCc2ccccc2)C1` (configuration not stated), the AC50 [1] was 14.1 µM [rising, single point] and the AC50 [2] was 20 µM [rising, single point].

For `CCOc1ccc(NC(=S)NCCCc2ccccc2)cc1`, the AC50 [2] was 2.24 µM [falling, partial curve, poor fit].

With `O=C(NC1CCCC1)C(c1ccc(O)cc1)N(CC1CCCO1)C(=O)C1COc2ccccc2O1` (configuration not stated) the AC50 [1] was 11.2 µM [rising, partial curve, poor fit] and the AC50 [2] was 10 µM [rising, partial curve, poor fit].

In the case of `Cc1cccc(-c2nc(C)c(CCNC(=O)C(=O)Nc3c(C)cc(C)cc3C)s2)c1`, the AC50 [2] was 3.16 µM [falling, partial curve, poor fit].

In the case of `COc1cc2c(cc1OC)C(C)N(C(=O)c1ccc(Br)o1)CC2` (configuration not stated), the AC50 [1] was 17.8 µM [rising, single point] and the AC50 [2] was 22.4 µM [rising, single point].

With `CCOP(=O)(c1ccccc1)c1nc(-c2ccccc2Cl)oc1N1CCCCC1` (configuration not stated) the AC50 [1] was 35.5 µM [falling, single point] and the AC50 [2] was 35.5 µM [falling, single point].

With `NC(=O)C(=O)N/N=C/c1ccc([N+](=O)[O-])o1` the AC50 [1] was 2.82 µM [falling, single point].

In the case of `CCc1[nH]nc2c1C1(CCOC1C)C(C#N)=C(N)O2` (configuration not stated), the AC50 [1] was 3.55 µM [rising, single point] and the AC50 [2] was 5.62 µM [rising, single point].
